In patent US20230372236A1, “DRUG CONTAINING DISSOLVABLE OCULAR INSERTS AND METHOD OF USING SAME” (Novartis AG, priority 2020, published 2023):
At least one read-out could not be matched to a standard name with certainty.

Test: Recovery of Compound A from hydrated films
Assay type: physicochemical
Settings: extraction three days, Acetonitrile:methanol (1:2), of original amount

## CC(C)c1nc2cc(O)ccc2c(=O)n1-c1ccc(C#N)cc1 [Compound A, 4-(7-Hydroxy-2-isopropyl-4-oxo-4H-quinazolin-3-yl)-benzonitrile]
  recovery rate of Compound A from the films: 95-99%
